In the test the target is nucleotide-binding domain (NBD) of Hsc70. In words: co-IP; truncated mutants of GKN2 and Hsc70 tagged with myc and HA.

Results are given in words; binding and its absence hold for the method and conditions named. In cells and extracts the contact can be indirect. Binding calls can cover weak binding; strength is not graded here.

B1: GKN2 as used in the co-immunoprecipitation of the truncated mutants (protein, UniProt Q86XP6 21-184)
chain: YEVFNIISPSNNGGNVQETVTIDNEKNTAIINIHAGSCSSTTIFDYKHGYIASRVLSRRACFILKMDHQNIPPLNNLQWYIYEKQALDNMFSSKYTWVKYNPLESLIKDVDWFLLGSPIEKLCKHIPLYKGEVVENTHNVGAGGCAKAGLLGILGISICADIHV
With B1, the binding result was “binds”.

Source of the values: publication PMC6683576.
